Source: patent publication US20240327840
At least one result comes from cells or an extract, where the contact may be indirect. For part of these data: A negative result means that nothing was seen under these conditions. Where a protein sequence is shown, tags need not be part of it. For at least one entry, the source does not settle the construct or the ends of the probe. The comparison behind a weaker result is the experiment's own reference, which may not be listed here.

Columns and labels:
Experiment in all cases: pull-down
[1] = biological target: T1, QKI-5 (Quaking isoform 5) (Homo sapiens) (UniProt Q96PU8); details: protein in an extract, label: 5'-C6 biotin
T1 sequence: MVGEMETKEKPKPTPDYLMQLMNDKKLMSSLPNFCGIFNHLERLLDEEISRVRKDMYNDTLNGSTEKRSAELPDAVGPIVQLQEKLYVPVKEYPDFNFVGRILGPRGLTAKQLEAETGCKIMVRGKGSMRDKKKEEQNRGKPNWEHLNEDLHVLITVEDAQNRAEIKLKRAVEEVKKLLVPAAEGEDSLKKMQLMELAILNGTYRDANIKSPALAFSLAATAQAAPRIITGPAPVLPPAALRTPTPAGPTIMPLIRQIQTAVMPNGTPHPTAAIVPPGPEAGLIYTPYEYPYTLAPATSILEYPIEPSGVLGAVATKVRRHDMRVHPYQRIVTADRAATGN

[2] = biological target: T2, QKI-6 (Quaking isoform 6) (Homo sapiens) (UniProt Q96PU8); details: 2'-OMe all, protein in an extract, label: 5'-C6 biotin
T2 sequence: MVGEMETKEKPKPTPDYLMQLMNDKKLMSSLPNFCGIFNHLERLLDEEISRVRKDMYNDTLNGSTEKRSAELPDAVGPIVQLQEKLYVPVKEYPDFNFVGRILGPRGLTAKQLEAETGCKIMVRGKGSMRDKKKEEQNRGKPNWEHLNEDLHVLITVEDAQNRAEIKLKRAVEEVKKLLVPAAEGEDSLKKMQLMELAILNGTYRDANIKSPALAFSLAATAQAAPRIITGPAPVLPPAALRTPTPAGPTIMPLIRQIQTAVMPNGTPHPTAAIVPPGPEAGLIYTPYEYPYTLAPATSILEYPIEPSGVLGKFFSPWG

[3] = biological target: T3, QKI-7 (Quaking isoform 7) (Homo sapiens) (UniProt Q96PU8); details: 2'-OMe all, protein in an extract, label: 5'-C6 biotin
T3 sequence: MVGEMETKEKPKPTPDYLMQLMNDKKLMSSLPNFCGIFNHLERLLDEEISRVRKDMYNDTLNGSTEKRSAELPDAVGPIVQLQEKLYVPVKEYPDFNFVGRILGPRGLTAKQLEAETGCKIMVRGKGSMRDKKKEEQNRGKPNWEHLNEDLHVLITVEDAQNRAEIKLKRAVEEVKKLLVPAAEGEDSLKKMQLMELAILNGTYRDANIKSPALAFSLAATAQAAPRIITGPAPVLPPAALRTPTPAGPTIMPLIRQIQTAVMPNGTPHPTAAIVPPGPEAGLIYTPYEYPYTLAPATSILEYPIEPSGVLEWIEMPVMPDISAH

[4] = somewhat preferential in cytoplasmic fraction

“ACTAACTTTACTAACTTTACTAACTTTACTAAC [(ACUAAC)4 with DNA TTT spacers]”: binds ([1]; 2'-OMe in ACUAAC, dT spacers, DNA spacer neither hampers nor improves interaction, variant of (ACUAAC)4).

“ACTAACTTTACTAACTTTACTAACTTTACTAAC [(ACUAAC)4 with LNA TTT spacers]”: no binding ([1]; 2'-OMe in ACUAAC, LNA T spacers, LNA spacer completely blocks binding, variant of (ACUAAC)4).

ACUAACACUAAC [(ACUAAC)2]: binds more weakly ([1]; 2'-OMe all, little ability to interact, rank 77>76>75>74); binds more weakly ([2]; little ability to interact); binds more weakly ([3]; little ability to interact).

ACUAACACUAACACUAAC [(ACUAAC)3]: binds ([1]; 2'-OMe all, rank 77>76>75>74).

“ACUAACACUAACACUAACACUAAC [(ACUAAC)4 with TEG spacer 9]”: binds ([1]; 2'-OMe in ACUAAC, triethylene glycol spacer 9 between ACUAAC motifs, TEG spacer neither hampers nor improves interaction, variant of (ACUAAC)4).

ACUAACACUAACACUAACACUAAC [(ACUAAC)4]: binds ([1]; 2'-OMe all, rank 77>76>75>74).

“ACUAACACUAACACUAACACUAACACUAACACUAAC [(ACUAAC)6]”: binds ([1]; 2'-OMe all, strongest of the series 77>76>75>74).

“ACUAACUUUACUAACUUUACUAACUUUACUAAC [(ACUAAC)4 with RNA UUU spacers]”: binds ([1]; 2'-OMe all, RNA spacer neither hampers nor improves interaction, variant of (ACUAAC)4).

“GCAAUCCGCAAUCCGCAAUCC [scr scrambled dcRNA]”: no binding ([1]; 2'-OMe all, little to no binding).

“GCUUUACGAACACAGAUACGAACAUCG [SEQ62 mutated control dcRNA]”: no binding ([1]; 2'-OMe all, little to no binding, variant of SEQ63 dual core dcRNA, 5 nt spacer).

“GCUUUACUAACACAGAUACUAACAUCG [SEQ63 dual core dcRNA, 5 nt spacer]”: binds ([1]; 2'-OMe all, streptavidin pulldown and western blot, 50 mM KCl, 5 mM MgCl2, 4C, nuclear and cytoplasmic extract); binds [2, 4]; binds [3, 4].
